For 1 molecule, binding results are on record in US20140106352A1.

By UniProt entry, the sequences of proteins in these tests, tags left out. Residues count along the entry.
UniProt Q27J81, residues 2-1249: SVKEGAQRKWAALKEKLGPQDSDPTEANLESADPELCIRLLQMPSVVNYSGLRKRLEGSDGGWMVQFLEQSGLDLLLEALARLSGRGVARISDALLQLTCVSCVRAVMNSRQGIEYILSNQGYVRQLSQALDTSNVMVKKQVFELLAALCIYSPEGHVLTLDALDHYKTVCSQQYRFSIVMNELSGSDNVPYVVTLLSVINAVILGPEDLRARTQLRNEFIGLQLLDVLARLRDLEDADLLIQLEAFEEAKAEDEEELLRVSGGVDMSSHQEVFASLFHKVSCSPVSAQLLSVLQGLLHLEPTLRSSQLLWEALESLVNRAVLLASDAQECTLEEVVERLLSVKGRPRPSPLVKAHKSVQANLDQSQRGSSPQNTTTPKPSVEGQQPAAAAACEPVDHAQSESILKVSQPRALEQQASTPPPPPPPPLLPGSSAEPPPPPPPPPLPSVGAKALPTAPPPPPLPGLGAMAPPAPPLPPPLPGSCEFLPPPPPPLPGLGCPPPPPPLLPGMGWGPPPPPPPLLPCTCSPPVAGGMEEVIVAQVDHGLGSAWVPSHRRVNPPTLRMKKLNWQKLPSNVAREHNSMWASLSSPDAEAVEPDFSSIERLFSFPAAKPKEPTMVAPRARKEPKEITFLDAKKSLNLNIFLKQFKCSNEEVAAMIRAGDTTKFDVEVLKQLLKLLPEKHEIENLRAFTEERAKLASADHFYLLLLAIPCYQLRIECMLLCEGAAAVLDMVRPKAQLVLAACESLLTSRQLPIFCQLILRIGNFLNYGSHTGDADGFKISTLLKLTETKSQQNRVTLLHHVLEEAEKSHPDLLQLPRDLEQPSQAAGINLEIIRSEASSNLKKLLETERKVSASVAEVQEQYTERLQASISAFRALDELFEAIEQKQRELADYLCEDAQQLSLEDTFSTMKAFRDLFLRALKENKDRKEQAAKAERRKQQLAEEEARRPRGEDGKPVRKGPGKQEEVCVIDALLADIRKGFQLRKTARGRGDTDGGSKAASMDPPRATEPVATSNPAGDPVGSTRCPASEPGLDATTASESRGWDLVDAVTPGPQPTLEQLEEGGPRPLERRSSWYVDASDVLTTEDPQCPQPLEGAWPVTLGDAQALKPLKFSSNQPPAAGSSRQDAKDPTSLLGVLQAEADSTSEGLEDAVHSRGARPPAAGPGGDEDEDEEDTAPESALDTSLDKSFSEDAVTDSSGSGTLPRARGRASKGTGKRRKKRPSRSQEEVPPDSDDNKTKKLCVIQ

Results are given in words; binding and its absence hold for the method and conditions named. Some results given as binding are weak or reduced against the parent protein; the word gives no strength.

This assay concerns the target INF2 (human) (UniProt Q27J81). The assay is described as follows: only co-localisation by immunofluorescence in immortalized human podocytes (FIG. 3); no direct binding assay.

B1: anillin (ANLN), wild-type, endogenous in immortalized human podocytes (protein)
chain: MDPFTEKLLERTRARRENLQRKMAERPTAAPRSMTHAKRARQPLSEASNQQPLSGGEEKSCTKPSPSKKRCSDNTEVEVSNLENKQPVESTSAKSCSPSPVSPQVQPQAADTISDSVAVPASLLGMRRGLNSRLEATAASSVKTRMQKLAEQRRRWDNDDMTDDIPESSLFSPMPSEEKAASPPRPLLSNASATPVGRRGRLANLAATICSWEDDVNHSFAKQNSVQEQPGTACLSKFSSASGASARINSSSVKQEATFCSQRDGDASLNKALSSSADDASLVNASISSSVKATSPVKSTTSITDAKSCEGQNPELLPKTPISPLKTGVSKPIVKSTLSQTVPSKGELSREICLQSQSKDKSTTPGGTGIKPFLERFGERCQEHSKESPARSTPHRTPIITPNTKAIQERLFKQDTSSSTTHLAQQLKQERQKELACLRGRFDKGNIWSAEKGGNSKSKQLETKQETHCQSTPLKKHQGVSKTQSLPVTEKVTENQIPAKNSSTEPKGFTECEMTKSSPLKITLFLEEDKSLKVTSDPKVEQKIEVIREIEMSVDDDDINSSKVINDLFSDVLEEGELDMEKSQEEMDQALAESSEEQEDALNISSMSLLAPLAQTVGVVSPESLVSTPRLELKDTSRSDESPKPGKFQRTRVPRAESGDSLGSEDRDLLYSIDAYRSQRFKETERPSIKQVIVRKEDVTSKLDEKNNAFPCQVNIKQKMQELNNEINMQQTVIYQASQALNCCVDEEHGKGSLEEAEAERLLLIATGKRTLLIDELNKLKNEGPQRKNKASPQSEFMPSKGSVTLSEIRLPLKADFVCSTVQKPDAANYYYLIILKAGAENMVATPLASTSNSLNGDALTFTTTFTLQDVSNDFEINIEVYSLVQKKDPSGLDKKKKTSKSKAITPKRLLTSITTKSNIHSSVMASPGGLSAVRTSNFALVGSYTLSLSSVGNTKFVLDKVPFLSSLEGHIYLKIKCQVNSSVEERGFLTIFEDVSGFGAWHRRWCVLSGNCISYWTYPDDEKRKNPIGRINLANCTSRQIEPANREFCARRNTFELITVRPQREDDRETLVSQCRDTLCVTKNWLSADTKEERDLWMQKLNQVLVDIRLWQPDACYKPIGKP
Consider B1, for which the binding result is recorded as “binds”.
